Experimental data as given in article doi:10.1101/2020.11.12.379867.
Results are given in words; binding and its absence hold for the method and conditions named. Binding seen in cells or lysates may run through a third protein. Some binding calls cover weakened binding; strength is not graded here.

Amino acid sequences for entries named in this document (tags omitted). A change or cut given only in a name is not applied to a line headed by its entry. Chains listed by the source or under a name are the forms on record and can include a tag or linker.
GluA1^DDDD (mouse GluA1 with S816, S818, S831 and S845 replaced with aspartate) (P23818, form named): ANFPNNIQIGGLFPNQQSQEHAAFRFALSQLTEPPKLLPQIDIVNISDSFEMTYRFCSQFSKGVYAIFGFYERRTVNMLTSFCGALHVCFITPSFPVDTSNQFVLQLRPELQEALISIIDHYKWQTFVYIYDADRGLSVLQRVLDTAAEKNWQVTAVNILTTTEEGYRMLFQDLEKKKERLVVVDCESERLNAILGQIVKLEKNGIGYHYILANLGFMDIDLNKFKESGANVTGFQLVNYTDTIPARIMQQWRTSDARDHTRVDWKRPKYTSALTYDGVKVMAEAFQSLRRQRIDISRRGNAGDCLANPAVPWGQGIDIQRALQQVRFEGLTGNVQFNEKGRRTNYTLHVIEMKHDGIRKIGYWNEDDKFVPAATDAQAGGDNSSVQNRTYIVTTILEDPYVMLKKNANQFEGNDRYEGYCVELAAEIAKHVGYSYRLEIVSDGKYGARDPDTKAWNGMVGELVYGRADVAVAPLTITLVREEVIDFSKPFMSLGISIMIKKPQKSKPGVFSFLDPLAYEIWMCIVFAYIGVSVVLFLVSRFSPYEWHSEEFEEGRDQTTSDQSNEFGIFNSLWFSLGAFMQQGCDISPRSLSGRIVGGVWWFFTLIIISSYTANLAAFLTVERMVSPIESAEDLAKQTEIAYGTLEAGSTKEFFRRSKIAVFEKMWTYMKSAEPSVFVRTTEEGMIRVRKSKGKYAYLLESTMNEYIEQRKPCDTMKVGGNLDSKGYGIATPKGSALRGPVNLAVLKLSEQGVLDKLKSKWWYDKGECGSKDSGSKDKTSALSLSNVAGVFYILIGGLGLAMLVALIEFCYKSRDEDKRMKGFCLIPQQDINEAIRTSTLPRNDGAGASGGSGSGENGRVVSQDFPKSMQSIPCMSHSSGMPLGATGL
GluA1^AADD (mouse GluA1 with S816/S818 replaced with alanine and S831/S845 with aspartate) (P23818, form named): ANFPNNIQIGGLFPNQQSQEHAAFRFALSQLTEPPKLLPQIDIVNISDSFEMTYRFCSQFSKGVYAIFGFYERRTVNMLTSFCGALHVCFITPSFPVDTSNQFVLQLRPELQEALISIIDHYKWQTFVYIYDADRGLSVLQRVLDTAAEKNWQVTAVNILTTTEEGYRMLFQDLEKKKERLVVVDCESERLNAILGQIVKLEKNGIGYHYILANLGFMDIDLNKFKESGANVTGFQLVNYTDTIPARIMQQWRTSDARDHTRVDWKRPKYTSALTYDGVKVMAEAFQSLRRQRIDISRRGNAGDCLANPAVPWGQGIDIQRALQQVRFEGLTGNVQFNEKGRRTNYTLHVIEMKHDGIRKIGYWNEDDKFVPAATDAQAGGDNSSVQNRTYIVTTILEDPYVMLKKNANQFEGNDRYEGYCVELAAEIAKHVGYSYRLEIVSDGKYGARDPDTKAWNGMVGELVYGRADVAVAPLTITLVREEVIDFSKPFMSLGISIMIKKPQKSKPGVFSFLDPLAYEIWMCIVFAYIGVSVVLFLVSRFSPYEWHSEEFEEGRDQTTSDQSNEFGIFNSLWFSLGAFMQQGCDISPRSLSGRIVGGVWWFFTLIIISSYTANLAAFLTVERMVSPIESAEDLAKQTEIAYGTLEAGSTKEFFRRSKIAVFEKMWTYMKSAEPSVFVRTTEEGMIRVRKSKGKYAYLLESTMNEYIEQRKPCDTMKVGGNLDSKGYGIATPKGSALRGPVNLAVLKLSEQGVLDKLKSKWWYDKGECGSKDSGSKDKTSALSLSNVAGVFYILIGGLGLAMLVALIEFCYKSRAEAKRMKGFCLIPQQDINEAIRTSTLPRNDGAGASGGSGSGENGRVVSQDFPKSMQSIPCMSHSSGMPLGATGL
GluA1^AAAA (mouse GluA1 with S816, S818, S831 and S845 replaced with alanine) (P23818, form named): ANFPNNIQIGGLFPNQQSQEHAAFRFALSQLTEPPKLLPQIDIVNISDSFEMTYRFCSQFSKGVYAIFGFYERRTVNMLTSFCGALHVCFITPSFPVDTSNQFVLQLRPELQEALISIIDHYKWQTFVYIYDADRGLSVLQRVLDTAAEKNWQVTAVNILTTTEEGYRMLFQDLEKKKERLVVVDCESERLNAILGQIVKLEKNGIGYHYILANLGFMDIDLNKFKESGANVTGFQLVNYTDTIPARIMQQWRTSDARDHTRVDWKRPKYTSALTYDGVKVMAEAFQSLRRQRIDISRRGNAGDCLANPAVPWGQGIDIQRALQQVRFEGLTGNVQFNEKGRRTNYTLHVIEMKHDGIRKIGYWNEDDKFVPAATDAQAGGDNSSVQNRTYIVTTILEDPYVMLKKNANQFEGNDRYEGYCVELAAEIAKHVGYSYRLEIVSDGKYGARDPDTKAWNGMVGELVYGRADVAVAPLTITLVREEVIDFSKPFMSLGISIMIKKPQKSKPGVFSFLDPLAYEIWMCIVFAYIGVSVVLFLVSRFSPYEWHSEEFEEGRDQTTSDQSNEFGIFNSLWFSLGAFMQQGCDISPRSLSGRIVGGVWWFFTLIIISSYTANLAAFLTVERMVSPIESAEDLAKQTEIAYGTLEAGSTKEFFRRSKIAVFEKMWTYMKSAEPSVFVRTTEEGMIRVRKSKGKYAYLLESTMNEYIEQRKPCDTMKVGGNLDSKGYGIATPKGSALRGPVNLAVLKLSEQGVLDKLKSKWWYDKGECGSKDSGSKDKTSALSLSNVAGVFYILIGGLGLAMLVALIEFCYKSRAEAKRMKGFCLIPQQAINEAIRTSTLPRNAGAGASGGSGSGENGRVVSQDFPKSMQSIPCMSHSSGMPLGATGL
GluA1^DDAA (mouse GluA1 with S816/S818 replaced with aspartate and S831/S845 with alanine) (P23818, form named): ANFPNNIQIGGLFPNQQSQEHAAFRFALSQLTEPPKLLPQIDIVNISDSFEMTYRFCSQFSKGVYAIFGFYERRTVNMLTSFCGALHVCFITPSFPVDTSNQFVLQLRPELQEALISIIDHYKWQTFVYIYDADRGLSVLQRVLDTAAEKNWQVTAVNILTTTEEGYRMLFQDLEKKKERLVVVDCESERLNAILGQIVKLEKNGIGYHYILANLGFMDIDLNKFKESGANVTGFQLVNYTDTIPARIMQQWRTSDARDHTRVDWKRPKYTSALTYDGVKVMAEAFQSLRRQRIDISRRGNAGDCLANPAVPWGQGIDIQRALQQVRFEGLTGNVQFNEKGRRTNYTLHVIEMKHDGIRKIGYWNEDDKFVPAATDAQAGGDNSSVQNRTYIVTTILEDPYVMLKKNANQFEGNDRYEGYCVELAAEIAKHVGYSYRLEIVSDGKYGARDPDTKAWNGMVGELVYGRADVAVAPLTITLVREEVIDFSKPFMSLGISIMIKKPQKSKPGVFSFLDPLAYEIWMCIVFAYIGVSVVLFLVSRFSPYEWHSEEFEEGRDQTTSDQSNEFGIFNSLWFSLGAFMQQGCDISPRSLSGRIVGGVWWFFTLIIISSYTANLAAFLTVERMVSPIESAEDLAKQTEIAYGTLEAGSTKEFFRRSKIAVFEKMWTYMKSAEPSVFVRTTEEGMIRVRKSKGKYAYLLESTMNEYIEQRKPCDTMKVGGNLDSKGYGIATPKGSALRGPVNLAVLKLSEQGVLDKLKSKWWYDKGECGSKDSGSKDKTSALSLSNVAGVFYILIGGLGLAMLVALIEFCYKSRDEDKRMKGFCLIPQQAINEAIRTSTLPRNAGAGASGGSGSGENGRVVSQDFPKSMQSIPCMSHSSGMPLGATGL

What was measured:
Assay in all cases: co-IP
[1] = molecular target: GluA1^DDDD (mouse GluA1 with S816, S818, S831 and S845 replaced with aspartate) (mouse) (UniProt P23818)
[2] = molecular target: GluA1^AADD (mouse GluA1 with S816/S818 replaced with alanine and S831/S845 with aspartate) (mouse) (UniProt P23818)
[3] = molecular target: GluA1^AAAA (mouse GluA1 with S816, S818, S831 and S845 replaced with alanine) (mouse) (UniProt P23818)
[4] = molecular target: GluA1^DDAA (mouse GluA1 with S816/S818 replaced with aspartate and S831/S845 with alanine) (mouse) (UniProt P23818)

Measured: binding

B1: stargazin (STG), co-expressed in HEK293 cells (protein, UniProt O88602 1-323)
chain: MGLFDRGVQMLLTTVGAFAAFSLMTIAVGTDYWLYSRGVCKTKSVSENETSKKNEEVMTHSGLWRTCCLEGNFKGLCKQIDHFPEDADYEADTAEYFLRAVRASSIFPILSVILLFMGGLCIAASEFYKTRHNIILSAGIFFVSAGLSNIIGIIVYISANAGDPSKSDSKKNSYSYGWSFYFGALSFIIAEMVGVLAVHMFIDRHKQLRATARATDYLQASAITRIPSYRYRYQRRSRSSSRSTEPSHSRDASPVGVKGFNTLPSTEISMYTLSRDPLKAATTPTATYNSDRDNSFLQVHNCIQKDSKDSLHANTANRRTTPV
binds: all assays above
